# PubChem BioAssay AID602196 – INSERM – 2012
# Purpose: 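Knock-downs that protect lung cancer cells from cisplatin or sensitise them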
# Cell system: human A549 lung cancer cells
# Reagent: siRNA pair against human genes
# Time to read-out: 48 h transfection before cisplatin; time from cisplatin to read-out not stated
# Challenge: cisplatin at a dose killing half of control-siRNA cells; exact dose and duration not given
# Read-out: 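Cisplatin cell death as a shift from the 50% death seen with control siRNA; siRNAs toxic or growth-blocking alone scored 0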
# Direction: two-siRNA summed score (-2 to +2): higher = both siRNAs protect from cisplatin killing; -2 means both sensitise; mean protection from cisplatin (shift in death) and protection from cisplatin (shift in death), siRNA C and protection from cisplatin (shift in death), siRNA D: higher = protection from cisplatin killing
# Rule for the call: 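siRNAs harmful alone (LDH or WST-1) get 0; others get +1 for less and -1 for more cisplatin killing; genes are active when the two siRNAs give the same sign, summing to ±2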
# Meaning of the calls: active = both siRNAs shift cisplatin killing the same way; inactive = no consistent shift, or siRNA harmful alone
# The whole screen tested about 23,000 reagents; shown is a part drawn at random. 455 of all reagents (2%) count as active. 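Active includes both protection and sensitisation; some change values fall well beyond the stated -50 to +50 range.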 Unmarked entries are inactive. Not stated in the record: the amount of reagent.
Target gene,PubChem SID,two-siRNA summed score (-2 to +2),mean protection from cisplatin (shift in death) (%),"protection from cisplatin (shift in death), siRNA C (%)","protection from cisplatin (shift in death), siRNA D (%)"
SURF2 (GeneID 6835),SID131514306,0,7.6,17.5,-2.2
LOC85028,SID131503496,0,-9.6,-16.5,-2.6
RXYLT1 (GeneID 10329),SID131514109,0,7.4,7.5,7.3
C1orf94 (GeneID 84970),SID131522075,1,16.1,8.1,24.2
FAS (GeneID 355),SID131503737,0,-8.1,-3.9,-12.3
ESF1 (GeneID 51575),SID131516378,0,10.8,9.1,12.4
LOC339991,SID131520169,1,8.9,4.6,13.2
SMARCAL1 (GeneID 50485),SID131501718,-1,-7.8,12,-27.7
CKAP5 (GeneID 9793),SID131510685,0,3.5,2.4,4.6
VPS18 (GeneID 57617),SID131513657,0,6.8,17.4,-3.7
DLC1 (GeneID 10395),SID131504478,0,-5.3,-8.8,-1.7
NUP107 (GeneID 57122),SID131509309,0,2,-3.7,7.8
PP13004 (retired record) (GeneID 402481),SID131514990,0,8.5,7.8,9.3
FCN1 (GeneID 2219),SID131507476,0,-0.1,-8.9,8.7
LHX8 (GeneID 431707),SID131512860,0,5.9,3,8.8
GOLGA2P9 (GeneID 440518),SID131514050,0,7.3,11.3,3.3
PPEF1 (GeneID 5475),SID131509280,0,2,6.7,-2.7
ARHGEF17 (GeneID 9828),SID131514037,0,7.3,12.6,2.1
FGF8 (GeneID 2253),SID131506941,0,-0.8,-7.1,5.6
ABHD12B (GeneID 145447),SID131515583,0,9.4,-2.7,21.4
PRKCI (GeneID 5584),SID131506142,0,-2,5.6,-9.5
KDM5D (GeneID 8284),SID131512597,0,5.7,0.4,10.9
LAMB4 (GeneID 22798),SID131523112,2 (active),20.3,7,33.6
PAK1 (GeneID 5058),SID131509954,0,2.7,-1.3,6.7
FABP5 (GeneID 2171),SID131515429,0,9.2,23.2,-4.9

Part of the list above, reformatted:
| Target gene | PubChem SID | two-siRNA summed score (-2 to +2) | mean protection from cisplatin (shift in death) (%) | protection from cisplatin (shift in death), siRNA C (%) | protection from cisplatin (shift in death), siRNA D (%) |
| --- | --- | --- | --- | --- | --- |
| NUP107 (GeneID 57122) | SID131509309 | 0 | 2 | -3.7 | 7.8 |
| PP13004 (retired record) (GeneID 402481) | SID131514990 | 0 | 8.5 | 7.8 | 9.3 |
| FCN1 (GeneID 2219) | SID131507476 | 0 | -0.1 | -8.9 | 8.7 |
| LHX8 (GeneID 431707) | SID131512860 | 0 | 5.9 | 3 | 8.8 |
| GOLGA2P9 (GeneID 440518) | SID131514050 | 0 | 7.3 | 11.3 | 3.3 |
| PPEF1 (GeneID 5475) | SID131509280 | 0 | 2 | 6.7 | -2.7 |
| ARHGEF17 (GeneID 9828) | SID131514037 | 0 | 7.3 | 12.6 | 2.1 |
| FGF8 (GeneID 2253) | SID131506941 | 0 | -0.8 | -7.1 | 5.6 |

The listing continues:
Target gene,PubChem SID,two-siRNA summed score (-2 to +2),mean protection from cisplatin (shift in death) (%),"protection from cisplatin (shift in death), siRNA C (%)","protection from cisplatin (shift in death), siRNA D (%)"
PNMA1 (GeneID 9240),SID131519491,1,5.9,22.5,-10.7
LOC442149,SID131511445,0,4.4,1.9,6.8
BHLHE22-AS1 (GeneID 401463),SID131511025,0,3.9,13.4,-5.6
AKAP6 (GeneID 9472),SID131500903,-1,-14.4,-17.6,-11.2
OSBP (GeneID 5007),SID131511627,0,4.6,2.2,6.9
IL27RA (GeneID 9466),SID131503322,0,-11,9.1,-31.1
ZMAT1 (GeneID 84460),SID131510645,0,3.5,1.8,5.2
POLR3E (GeneID 55718),SID131517245,0,12.8,9.2,16.4
HSPA1B (GeneID 3304),SID131505148,0,-3.7,-8.5,1.2
LOC389338,SID131515885,0,9.8,8.4,11.3
RING1 (GeneID 6015),SID131516681,0,11.4,-2.3,25.1
RABL2A (GeneID 11159),SID131507930,0,0.4,-1.5,2.4
NLRP1 (GeneID 22861),SID131500289,-2 (active),-43.4,-37.2,-49.6
LOC134466,SID131503340,0,-10.8,-7.3,-14.3
DAGLB (GeneID 221955),SID131502736,-1,4.7,-4,13.3
SMPD4 (GeneID 55627),SID131514798,0,8.3,14.4,2.1
SKA3 (GeneID 221150),SID131513895,0,7.1,6.1,8.2
LOC389749,SID131510072,0,2.8,-1.1,6.8
THOP1 (GeneID 7064),SID131516268,0,10.5,-3.5,24.6
OR9K2 (GeneID 441639),SID131521316,1,13,4.8,21.1
SLC17A4 (GeneID 10050),SID131516509,0,11,14.5,7.5
LOC387907,SID131516736,0,11.5,25.4,-2.3
BAAT (GeneID 570),SID131507889,0,0.4,1.2,-0.4
LOC388795,SID131513060,0,6.2,-3.1,15.4
SRF (GeneID 6722),SID131503312,0,-11.1,-34.7,12.5
SP7 (GeneID 121340),SID131516297,0,10.6,-6.2,27.4
SLCO3A1 (GeneID 28232),SID131508129,0,0.7,-2.2,3.5
SYCP2 (GeneID 10388),SID131523224,2 (active),28.4,36,20.9
A1BG (GeneID 1),SID131502928,0,-18.2,-7.1,-29.2
LOC400879 (retired record) (GeneID 400879),SID131513887,0,7.1,18.2,-3.9
LOC440374,SID131521174,1,12.5,15.4,9.5
LOC389900,SID131502412,-1,-2.6,3,-8.1
